According to the supplement of paper PMC10373366:
Structures can show the parent of a compound that is named as a salt. This is one part of the list. Most values come without repeats; read them as rough.

These molecules were tested on patient-derived ovarian cancer cells (PDC) (assay: cell growth inhibition ratio vs untreated control (CCK8); higher = stronger inhibition of cell viability). Details: 10 µM; 48 h.
Protocol: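 Natural product library (Topscience) screened at 10 µM final concentration for 48 h on ovarian cancer A2780 cells and patient-derived ovarian cancer cells (PDC) in 96-well plates; viability read by CCK8 and reported as inhibition ratio (%) relative to untreated control. Single-dose primary screen.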
For `Cc1cc(O)c2c(c1)C(=O)c1cc(O)cc(O)c1C2=O` [Emodin], the “cell growth inhibition ratio” value was -13.9%.
With `O=c1cc(-c2ccc(O)c(O)c2)oc2cc(O)cc(O)c12` [Luteolin] the “cell growth inhibition ratio” value was -11.2%.
In the case of `Cc1c(C)c2c(c(C)c1O)CC[C@@](C)(CCC[C@H](C)CCC[C@H](C)CCCC(C)C)O2` [Vitamin E], the “cell growth inhibition ratio” value is reported as 3.66%.
`OC[C@H]1O[C@H](O[C@]2(CCl)O[C@H](CCl)[C@@H](O)[C@@H]2O)[C@H](O)[C@@H](O)[C@H]1Cl` [Sucralose] was tested, and the “cell growth inhibition ratio” value was -13.1%.
For `CCCCCC1C(=O)CCC1CC(=O)OC` (centres undefined) [Methyl Dihydrojasmonate;Hedione], the “cell growth inhibition ratio” value was -7.95%.
With `O=C1C=C2C=C[C@@H](O)[C@H](O)[C@H]2O1` [griffonilide] the “cell growth inhibition ratio” value was -18.1%.
For `CNc1ncnc2c1ncn2[C@@H]1O[C@H](CO)[C@@H](O)[C@H]1O` [N6-methyladenosine (m6A)], the “cell growth inhibition ratio” value was -18.7%.
In the case of `CC(/C=C/C=C(\C)C(=O)O[C@@H]1O[C@H](CO[C@@H]2O[C@H](CO)[C@@H](O)[C@H](O)[C@H]2O)[C@@H](O)[C@H](O)[C@H]1O)=C\C=C\C=C(C)\C=C\C=C(/C)C(=O)O[C@@H]1O[C@H](CO[C@@H]2O[C@H](CO)[C@@H](O)[C@H](O)[C@H]2O)[C@@H](O)[C@H](O)[C@H]1O` [Crocin], the “cell growth inhibition ratio” value is reported as 14.9%.
For `CC(C)CCC[C@@H](C)[C@H]1CC[C@H]2[C@@H]3CC[C@H]4CC(=O)CC[C@]4(C)[C@H]3CC[C@]12C` [5alpha-Cholestan-3-one], the “cell growth inhibition ratio” value was -7.89%.
In the case of `COc1ccc2c3c1O[C@H]1C[C@@H](O)C=C[C@@]31CCN(C)C2` [Galanthamine HBr], the “cell growth inhibition ratio” value is reported as -4.81%.
`O=c1c(-c2ccc(O[C@@H]3O[C@H](CO)[C@@H](O)[C@H](O)[C@H]3O)cc2)coc2cc(O)cc(O)c12` [Sophoricoside] was tested, and the “cell growth inhibition ratio” value was 4.77%.
`C=C1C(=O)O[C@H]2[C@H]1CC/C(C)=C/CC[C@@]1(C)O[C@@H]21` [Parthenolide] was tested, and the “cell growth inhibition ratio” value was 10.4%.
For `NC1C(O)O[C@H](CO)C(O[C@@H]2O[C@H](CO)C(O[C@@H]3O[C@H](CO)[C@@H](O)[C@H](O)[C@H]3N)[C@H](O)C2N)C1O` (some centres undefined) [Chitosan], the “cell growth inhibition ratio” value was -7.74%.
`O=c1c(O)c(-c2ccc(O)c(O)c2)oc2cc(O)cc(O)c12` [Quercetin] was tested, and the “cell growth inhibition ratio” value was -5.05%.
`OCCc1ccc(O)c(O)c1` [3,4-Dihydroxyphenylethanol] was tested, and the “cell growth inhibition ratio” value was -7.04%.
With `OC[C@@H](O)[C@H](O)[C@H](O)[C@@H](O)CO` [Dulcitol] the “cell growth inhibition ratio” value was 8.79%.
With `C[C@]12CC[C@@H]3c4ccc(O)cc4CC[C@H]3[C@@H]1C[C@@H](O)[C@@H]2O` [Estriol] the “cell growth inhibition ratio” value was -47.3%.
In the case of `CC1(C)CCCC2(C)OC(=O)C=C12` (centres undefined) [Dihydroactinidiolide], the “cell growth inhibition ratio” value is reported as -5.79%.
In the case of `O=C1c2c(O)cccc2C([C@@H]2O[C@H](CO)[C@@H](O)[C@H](O)[C@H]2O)c2cc(CO)cc(O)c21` (some centres undefined) [Aloin], the “cell growth inhibition ratio” value is reported as -3.59%.
With `NC(=O)CCC(N)C(=O)O` (racemic) [DL-Glutamine] the “cell growth inhibition ratio” value was 7.54%.
In the case of `C[C@@H]1O[C@@H](O[C@H]2[C@H](O[C@H]3CC[C@@]4(C)[C@@H](CC[C@]5(C)[C@@H]4CC=C4[C@@H]6CC(C)(C)CC[C@]6(C(=O)O)CC[C@]45C)[C@]3(C)CO)OC[C@H](O)[C@@H]2O)[C@H](O)[C@H](O)[C@H]1O` [Alpha-Hederin], the “cell growth inhibition ratio” value is reported as 40.3%.
With `COc1ccc2cc1Oc1ccc(cc1)C[C@H]1c3cc(c(OC)cc3CCN1C)Oc1c(OC)c(OC)cc3c1[C@H](C2)N(C)CC3` [Tetrandrine] the “cell growth inhibition ratio” value was 34.5%.
With `COc1ccc2c(C)cc(=O)oc2c1` [7-Methoxy-4-methylcoumarin] the “cell growth inhibition ratio” value was -8.88%.
With `CC[C@H](C)[C@H](N)C1=N[C@H](C(=O)N[C@@H](CC(C)C)C(=O)N[C@H](CCC(=O)O)C(=O)N[C@H](C(=O)N[C@H]2CCCCNC(=O)[C@H](CC(N)=O)NC(=O)[C@@H](CC(=O)O)NC(=O)[C@H](Cc3cnc[nH]3)NC(=O)[C@@H](Cc3ccccc3)NC(=O)[C@H]([C@@H](C)CC)NC(=O)[C@@H](CCCN)NC2=O)[C@@H](C)CC)CS1` [Bacitracin] the “cell growth inhibition ratio” value was -19.2%.
In the case of `O=c1[nH]cnc2nc[nH]c12` [6-Hydroxypurine], the “cell growth inhibition ratio” value is reported as -22.6%.
In the case of `C[C@H]1CC[C@@]2(OC1)O[C@H]1C[C@H]3[C@@H]4CC[C@@H]5C[C@@H](O[C@@H]6O[C@H](CO)[C@H](O)[C@H](O)[C@H]6O[C@@H]6O[C@H](CO)[C@@H](O)[C@H](O)[C@H]6O)CC[C@]5(C)[C@H]4CC[C@]3(C)[C@H]1[C@@H]2C` [Timosaponin AIII], the “cell growth inhibition ratio” value is reported as 87.6%.
In the case of `COc1ccc(/C=C\c2cc(OC)c(OC)c(OC)c2)cc1O` [Combretastatin A4], the “cell growth inhibition ratio” value is reported as 34%.
With `CC1=C(/C=C/C(C)=C/C=C/C(C)=C/C=C/C=C(C)/C=C/C=C(C)/C=C/C2=C(C)CCCC2(C)C)C(C)(C)CCC1` [Beta-Carotene] the “cell growth inhibition ratio” value was -6.44%.
`COc1cc2c(=O)c(-c3ccc(O)cc3)coc2cc1O[C@@H]1O[C@H](CO)[C@@H](O)[C@H](O)[C@H]1O` [Glycitin] was tested, and the “cell growth inhibition ratio” value was 8.45%.
For `CC(C)=CCC[C@](C)(O[C@@H]1O[C@H](CO[C@@H]2OC[C@H](O)[C@H](O)[C@H]2O)[C@@H](O)[C@H](O)[C@H]1O)[C@H]1CC[C@]2(C)[C@@H]1[C@H](O)C[C@@H]1[C@@]3(C)CC[C@H](O[C@@H]4O[C@H](CO)[C@@H](O)[C@H](O)[C@H]4O[C@@H]4O[C@H](CO)[C@@H](O)[C@H](O)[C@H]4O)C(C)(C)[C@@H]3CC[C@]12C` [Ginsenoside Rb2], the “cell growth inhibition ratio” value was -23.3%.
`COc1cc2c(cc1OC)[C@@H]1Cc3ccc(OC)c(OC)c3CN1CC2` [Rotundine, TETRAHYDROPALMATINE HYDROCHLORIDE] was tested, and the “cell growth inhibition ratio” value was -6.48%.
With `CC[C@H](C)C(=O)O[C@H]1C[C@@H](C)C=C2C=C[C@H](C)[C@H](CC[C@@H]3C[C@@H](O)CC(=O)O3)[C@H]21` [Lovastatin] the “cell growth inhibition ratio” value was -25.1%.
In the case of `C/C(=C\C(=O)OCCCCCCCCC(=O)O)C[C@@H]1OC[C@H](C[C@@H]2O[C@H]2[C@@H](C)[C@H](C)O)[C@@H](O)[C@H]1O` [Mupirocin], the “cell growth inhibition ratio” value is reported as -21.4%.
For `C[C@H](CCC(=O)NCCS(=O)(=O)O)[C@H]1CC[C@H]2[C@@H]3[C@H](O)C[C@@H]4C[C@H](O)CC[C@]4(C)[C@H]3C[C@H](O)[C@]12C` [Taurocholic acid sodium salt hydrate], the “cell growth inhibition ratio” value was -7.17%.
`O=C(O)/C=C/c1ccc(O)c(O)c1` [Caffeic Acid] was tested, and the “cell growth inhibition ratio” value was 4.98%.
For `COc1c(O)cc2occ(-c3ccc(O)cc3)c(=O)c2c1O` [Tectorigenin], the “cell growth inhibition ratio” value was 0.634%.
For `C=CC(C)(C)c1cc(/C=C/C(=O)c2ccc(O)cc2)c(OC)cc1O` [Licochalcone A], the “cell growth inhibition ratio” value was -18.3%.
With `CC1(C)O[C@H]2CC(=O)OC[C@]23[C@H]2CC[C@@]4(C)[C@H](c5ccoc5)OC(=O)[C@H]5O[C@]54[C@]2(C)C(=O)C[C@@H]13` [Limonin] the “cell growth inhibition ratio” value was -8.23%.
`COc1cc2c(cc1O)CC[n+]1cc3c(OC)c(OC)ccc3cc1-2` [Jatrorrhizine hydrochloride] was tested, and the “cell growth inhibition ratio” value was -3.94%.
